PubChem BioAssay AID1224828, NIAID | 2016
Assay: 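Regulators linking TLR4 signalling to p65 nuclear translocation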 (primary screen). System: mouse RAW264.7 G9 macrophage reporter cells (GFP-p65, Tnf promoter-mCherry). Reagent: siRNA pool against mouse genes, 100 nM. Time to read-out: 2 days siRNA transfection, then 40 min LPS before fixation. Conditions: LPS (Salmonella minnesota R595) at 10 ng/ml. Measurement: 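Imaged p65 nuclear translocation ratio, normalised to the plate median, converted to robust z-scores and averaged across two replicates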. Scale: p65 translocation robust z-score: higher = more nuclear NF-kappaB p65 after LPS than the plate median; nuclear/cytoplasmic p65 ratio: higher = more nuclear NF-kappaB p65. Call rule: 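Called active when z exceeds 3.3 or falls under -1.56 (median of Tlr4 controls), giving activity score of at least 50; no calls for control wells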. Calls: active = hit (p65 shift raised or lowered); inactive = no clear change.
The deposit covers about 17,000 reagents; shown is an unselected part. In the full data, 762 (4.5%) are marked active. 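Active calls include both raised and lowered p65 entry, mostly lowered; wells with fewer than 50 cells lack a z-score.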 The raw values are shown without normalisation. Entries without a mark were called inactive.

Which result is listed for Or5t9 (GeneID 258362)?
p65 translocation robust z-score: -0.43; nuclear/cytoplasmic p65 ratio, rep 1: 1.66; nuclear/cytoplasmic p65 ratio, rep 2: 1.46; low cell count flag: enough cells to score

What did the screen give for Rer1 (GeneID 67830)?
nuclear/cytoplasmic p65 ratio, rep 1: 1.28; nuclear/cytoplasmic p65 ratio, rep 2: 1.99; low cell count flag: fewer than 50 cells per well; well left out of scoring

With Dgka (GeneID 13139), what does the deposit list?
p65 translocation robust z-score: -0.11; nuclear/cytoplasmic p65 ratio, rep 1: 1.65; nuclear/cytoplasmic p65 ratio, rep 2: 1.39; low cell count flag: enough cells to score

Which result is listed for Rps10 (GeneID 67097)?
nuclear/cytoplasmic p65 ratio, rep 1: 1.21; nuclear/cytoplasmic p65 ratio, rep 2: 1.08; low cell count flag: fewer than 50 cells per well; well left out of scoring

What did the screen give for Pxk (GeneID 218699)?
p65 translocation robust z-score: 0.65; nuclear/cytoplasmic p65 ratio, rep 1: 1.77; nuclear/cytoplasmic p65 ratio, rep 2: 1.47; low cell count flag: enough cells to score

Part of the list above, showing only “nuclear/cytoplasmic p65 ratio, rep 1”.
Rer1 (GeneID 67830) = 1.28
Dgka (GeneID 13139) = 1.65

The results go on:
With Or52e7 (GeneID 259099), what does the deposit list?
p65 translocation robust z-score: 1.89; nuclear/cytoplasmic p65 ratio, rep 1: 1.7; nuclear/cytoplasmic p65 ratio, rep 2: 1.62; low cell count flag: enough cells to score

For Cnp (GeneID 12799), what was measured?
p65 translocation robust z-score: -0.5; nuclear/cytoplasmic p65 ratio, rep 1: 1.51; nuclear/cytoplasmic p65 ratio, rep 2: 1.71; low cell count flag: enough cells to score

With Mzt1 (GeneID 76789), what does the deposit list?
p65 translocation robust z-score: 1.79; nuclear/cytoplasmic p65 ratio, rep 1: 1.67; nuclear/cytoplasmic p65 ratio, rep 2: 1.66; low cell count flag: enough cells to score

Which result is listed for Trim2 (GeneID 80890)?
p65 translocation robust z-score: 1.1; nuclear/cytoplasmic p65 ratio, rep 1: 1.6; nuclear/cytoplasmic p65 ratio, rep 2: 1.23; low cell count flag: enough cells to score

With Rnf185 (GeneID 193670), what was measured?
p65 translocation robust z-score: -0.66; nuclear/cytoplasmic p65 ratio, rep 1: 1.34; nuclear/cytoplasmic p65 ratio, rep 2: 1.3; low cell count flag: enough cells to score

With Pwwp3a (GeneID 68114), what was measured?
p65 translocation robust z-score: -0.59; nuclear/cytoplasmic p65 ratio, rep 1: 1.33; nuclear/cytoplasmic p65 ratio, rep 2: 1.48; low cell count flag: enough cells to score

What is on record for Tmem65 (GeneID 74868)?
nuclear/cytoplasmic p65 ratio, rep 1: 1.07; nuclear/cytoplasmic p65 ratio, rep 2: 1.09; low cell count flag: fewer than 50 cells per well; well left out of scoring

With Arhgef15 (GeneID 442801), how do the results read?
p65 translocation robust z-score: 0.07; nuclear/cytoplasmic p65 ratio, rep 1: 1.42; nuclear/cytoplasmic p65 ratio, rep 2: 1.42; low cell count flag: enough cells to score

For Tti1 (GeneID 75425), what does the deposit list?
nuclear/cytoplasmic p65 ratio, rep 1: 1.42; nuclear/cytoplasmic p65 ratio, rep 2: 1.45; low cell count flag: fewer than 50 cells per well; well left out of scoring
